Hit rate of the full screen: of about 320,000 compounds, about 2,100 (0.66%) were called active. The shares of active, inactive and inconclusive entries below differ from those in the screen. Calls come from the whole dose curve; as a rule, active = well fitted inhibition curve with a large enough effect in the signal ratio, with a control signal flat (not every such curve was filed as active); inconclusive = small, poorly fitted or top-dose-only effect, or effect the other way, or a change in a side signal; inactive = flat fitted curve, though single readings scatter; the % refers to the signal ratio. Potencies of inconclusive entries are doubtful fits and often do not repeat.
Assay: qHTS Assay for Lipid Storage Modulators in Drosophila S3 Cells
Details: BODIPY lipid droplet fluorescence, 18-24 h, cells fed with added oleic acid; lipid storage change, negative = inhibition: at 46.1 µM (top of the series) unless noted
How it was run: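 Drosophila S3 cells loaded with oleic acid (400 uM, as added) and compounds at several concentrations; lipid droplets imaged by 488-nm laser-scanning cytometry, 500–530 nm intensity and object ratio to cell channel. Percent activity normalized to 20 uM Triacsin C.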
For `CCCn1c(=N)n(CC(=O)c2ccc(Cl)c(Cl)c2)c2ccccc21`, the lipid storage change, negative = inhibition was inconclusive: 11.8%.
In the case of `COc1ccc(CCCc2nnc(SCC(=O)NN)o2)c(C)c1`, the lipid storage change, negative = inhibition is reported as inconclusive: 9.72%.
With `Cc1ccc(C)c(NC2=NS(=O)(=O)c3ccccc32)c1` the lipid storage change, negative = inhibition was inconclusive: 36.9%.
In the case of `COCCn1c(C)cc(C(=O)COC(=O)c2ccc[nH]c2=O)c1C`, the lipid storage change, negative = inhibition is reported as inconclusive: 35.9%.
With `Cc1[nH][nH]c(=O)c1C(c1c(C)[nH][nH]c1=O)c1cn(Cc2ccccc2Cl)c2ccccc12` the Potency was inconclusive: 0.82 µM [activator, partial curve].
With `CN(C)S(=O)(=O)Oc1cccc(C(=O)Nc2ccc(Cl)cc2)c1` the Potency was inconclusive: 9.2 µM [falling, partial curve].
In the case of `N#Cc1ccccc1NC(=O)CC1CCCCC1`, the lipid storage change, negative = inhibition is reported as inconclusive: -16.4%.
For `COc1cccc(NC(=O)CN(C)C(=O)c2ccc(NS(=O)(=O)c3ccc(F)cc3)cc2)c1`, the lipid storage change, negative = inhibition was inconclusive: 9.29%.
With `CC(=O)N1CCC(C(=O)OCc2ccc(Cl)cc2)(c2ccccc2)CC1` the lipid storage change, negative = inhibition was inconclusive: -9.73%.
In the case of `COc1ccc(CN2CCN(CC(=O)Nc3ccccc3C(=O)NC3CC3)CC2)cc1F`, the lipid storage change, negative = inhibition is reported as inconclusive: 1.1%.
In the case of `COc1ccc(/C=N/NC(=O)c2nnn(-c3nonc3N)c2-c2cccc(OC)c2)cc1`, the Potency is reported as inconclusive: 13 µM [activator, partial curve].
With `CC(=O)Nc1ccc(S(=O)(=O)Nc2ccc3c(c2)n(C)c(=O)n3C)c(C)c1` the lipid storage change, negative = inhibition was inconclusive: 86.2%.
In the case of `C[C@H]1CN=C(N(C)C)N1CCC1CCCCC1`, the Potency is reported as inconclusive: 29.1 µM [activator, partial curve, poor fit].
In the case of `CCC(C)n1c(-c2cccc(S(=O)(=O)N3CCOCC3)c2)n[nH]c1=S` (stereo not given), the Potency is reported as inconclusive: 0.0041 µM [activator, full curve, poor fit].
For `Clc1ccccc1-c1nnn(Cc2ccc(-c3nn[nH]n3)cc2)n1`, the Potency was inconclusive: 0.058 µM [falling, full curve].
For `O=C(Cc1cccs1)N1CCC(c2nc3c(nnn3Cc3ccccc3)c(=O)[nH]2)CC1`, the lipid storage change, negative = inhibition was inconclusive: 10.8%.
For `CCN(CC)S(=O)(=O)c1cnccc1N1CCN(c2cccc(Cl)c2)CC1`, the lipid storage change, negative = inhibition was inconclusive: 28.8%.
For `NS(=O)(=O)c1cc(C(=O)OCC(=O)Nc2ccc(N3CCCCC3)cc2)ccc1Cl`, the lipid storage change, negative = inhibition was inconclusive: 6.12%.
For `Cc1cccc(N2N=C(C(=O)Nc3ccc(Cl)c(S(=O)(=O)N4CCOCC4)c3)CCC2=O)c1`, the Potency was inconclusive: 29.1 µM [falling, partial curve].
With `CCCCNS(=O)(=O)c1ccc(NC(=O)C2CCCO2)cc1` (stereo not given) the lipid storage change, negative = inhibition was inconclusive: -1.87%.
With `O=C(CSc1nnc(NC(=O)Cc2ccccc2)s1)NCc1ccco1` the lipid storage change, negative = inhibition was inconclusive: -35.3% [at 9.22 µM].
In the case of `Fc1cccc(CSc2ccc(-c3ccc4c(c3)OCO4)nn2)c1`, the lipid storage change, negative = inhibition is reported as inconclusive: 20.4%.
In the case of `O=C(COc1ccccc1Cl)Nc1cccnc1`, the lipid storage change, negative = inhibition is reported as inconclusive: 11.1%.
For `O=C(NC1CCCc2ccccc21)C1CCCO1` (stereo not given), the lipid storage change, negative = inhibition was inconclusive: 14.1%.
For `CCOC(=O)CCCCC(=O)c1[nH]c(=O)[nH]c1CSc1nc(C)cc(=O)[nH]1`, the Potency was inconclusive: 0.0041 µM [activator, full curve, poor fit].
For `Cc1cc(NC(=O)CSCC(=O)Nc2cc(C(F)(F)F)ccc2N2CCCC2)no1`, the Potency was inconclusive: 0.13 µM [activator, full curve, poor fit].
In the case of `COc1ccc2cc(S(=O)(=O)NCc3cccnc3)ccc2c1`, the lipid storage change, negative = inhibition is reported as inconclusive: -5.23%.
In the case of `COc1cccc(/C=N/NC(=O)CN2CC(c3ccccc3)CC2=O)c1OC` (stereo not given), the lipid storage change, negative = inhibition is reported as inconclusive: 31.4%.
In the case of `O=C(NN=C1c2ccccc2-c2ccccc21)c1ccccn1`, the lipid storage change, negative = inhibition is reported as inconclusive: -21.4%.
With `O=C(O)c1cccc(NC(=S)N/N=C/c2c[nH]c3ccccc23)c1` the Potency was inconclusive: 4.11 µM [rising, single point].
With `CCOC(=O)CNC(=O)CSc1nnc(Cn2cnc3ccccc32)n1C` the Potency was inconclusive: 29.1 µM [falling, single point].
For `COc1ccc(N2C(=O)c3ccccc3NC2(C)C)cc1`, the lipid storage change, negative = inhibition was inconclusive: -16.1%.
For `Cc1nn(-c2ccccc2)c2[nH]c(=O)c(CNCC3CCCO3)cc12` (stereo not given), the Potency was inconclusive: 1.64 µM [falling, partial curve].
In the case of `O=c1cc(C(Cl)(Cl)Cl)oc2c1ccc1ccccc12`, the lipid storage change, negative = inhibition is reported as inconclusive: -23.7%.
For `CCN(CC)CCNC(=O)c1ccc(N)cc1`, the lipid storage change, negative = inhibition was inconclusive: 6%.
In the case of `COc1ccc(Br)cc1CN1CCN(C(=O)c2cccc(F)c2)CC1`, the Potency is reported as inconclusive: 29.1 µM [activator, single point].
In the case of `CC(=O)NNC(=O)CN1C(=O)/C(=C/c2ccccc2)SC1=S`, the lipid storage change, negative = inhibition is reported as inconclusive: 16.4%.
In the case of `Cc1ccc(-c2csc(NC(=O)C[n+]3cc(-c4ccccc4)n4c3CCC4)n2)cc1`, the lipid storage change, negative = inhibition is reported as inconclusive: 9.8%.
With `Fc1ccc(-c2nnc(CN3CCC(c4nc5ccccc5s4)CC3)o2)cc1` the lipid storage change, negative = inhibition was inconclusive: -19.4%.
With `CC(NC(=O)CN1CCN(Cc2ccc(Cl)cc2)C1=O)c1ccc2c(c1)OCCO2` (stereo not given) the lipid storage change, negative = inhibition was inconclusive: -3.72%.
With `CC(C)n1c(SCc2cc(=O)[nH]c3ccccc23)nc2c1c(=O)n(C)c(=O)n2C` the Potency was inconclusive: 2.31 µM [activator, partial curve].
With `COc1ccc2[nH]c(=O)c(CNc3ccccc3)cc2c1` the Potency was inconclusive: 6.51 µM [falling, partial curve].
In the case of `COc1ccc(CCNC(=O)c2cc([N+](=O)[O-])cc([N+](=O)[O-])c2)cc1OC`, the lipid storage change, negative = inhibition is reported as inconclusive: 12.3%.
For `O=C(CSc1ncn[nH]1)NCCOc1ccccc1`, the Potency was inconclusive: 3.66 µM [falling, single point].
In the case of `CCn1cc(CN2CCCC(C(=O)c3ccc(-c4ccccc4)cc3)C2)cn1` (stereo not given), the lipid storage change, negative = inhibition is reported as inconclusive: -43.5%.
In the case of `COc1ccc(CNC(=O)[C@H](C)N2C(=O)N3CCc4c([nH]c5ccccc45)[C@@]3(C)C2=O)cc1OC`, the Potency is reported as inconclusive: 4.11 µM [falling, full curve, poor fit].
For `CN(Cc1ccco1)C(=O)CSc1nc(C2CC2)n(-c2ccccc2)n1`, the Potency was inconclusive: 0.058 µM [activator, full curve, poor fit].
For `O=C(COc1ccccc1)N(Cc1cccc(F)c1)C1CCS(=O)(=O)C1` (stereo not given), the Potency was inconclusive: 29.1 µM [falling, single point].
With `COc1ccc(-c2csc(NC(=O)Cc3cccc4ccccc34)c2C(=O)O)cc1` the lipid storage change, negative = inhibition was inconclusive: 13.4%.
In the case of `COc1ccc(-c2csc(-c3cccs3)n2)c(OC)c1`, the lipid storage change, negative = inhibition is reported as inconclusive: 14.6%.
In the case of `CC(C)COc1ccc(C2NC(=O)NC2=O)cc1` (stereo not given), the Potency is reported as inconclusive: 0.146 µM [falling, full curve, poor fit].
For `O=C(O)CCC(=O)OCC1CCCCC1`, the lipid storage change, negative = inhibition was “inactive”.
In the case of `O=C(NCc1ccccc1CN1CCCC1)c1cccc(N2CCCC2=O)c1`, the lipid storage change, negative = inhibition is reported as inconclusive: 36.3%.
For `O=C(CSc1ccc(-c2ccc3c(c2)OCO3)nn1)Nc1nccs1`, the lipid storage change, negative = inhibition was inconclusive: 16.3%.
With `O=C(NNS(=O)(=O)c1ccccc1F)c1sccc1-n1cccc1` the lipid storage change, negative = inhibition was inconclusive: -3.45%.
With `O=C(Cn1cc(C(F)(F)F)ccc1=O)N1CCc2ccccc2C1` the Potency was inconclusive: 23.1 µM [activator, single point].
For `COc1ccc(C2=NN(C(=O)CCC(=O)O)C(c3ccc(F)cc3)C2)cc1` (stereo not given), the lipid storage change, negative = inhibition was inconclusive: -0.624%.
For `Cc1ccc(S(=O)(=O)N2CCN(CC(=O)N/N=C/c3ccc(C)o3)CC2)cc1`, the lipid storage change, negative = inhibition was inconclusive: 5.29%.
With `NC(=O)c1ccc(-c2c(-c3ccccc3)sc3ccccc23)cc1` the lipid storage change, negative = inhibition was inconclusive: -8.81%.
For `Cc1ccc2cc(C(c3nnnn3C(C)(C)C)N3CCCCCC3)c(=O)[nH]c2c1` (stereo not given), the Potency was inconclusive: 4.11 µM [rising, single point].
With `Clc1ccc(Sc2ccc(/C=N/n3cnnc3)o2)cc1` the lipid storage change, negative = inhibition was inconclusive: -78.1%.
For `O=C(CCCNC(=O)c1ccc(Cl)cc1)Nc1cccc(F)c1`, the Potency was inconclusive: 0.058 µM [falling, full curve, poor fit].
For `O=C(O)c1ccnc(C(=O)O)c1`, the Potency was inconclusive: 29.1 µM [activator, single point].
With `COc1ccc(NC(=O)c2coc3ccccc23)cc1OC` the lipid storage change, negative = inhibition was inconclusive: 22.6%.
In the case of `CSc1ccc(C(=S)N2CCCC2)cc1`, the lipid storage change, negative = inhibition is reported as inconclusive: -67.4%.
With `CCO/N=C(\C)c1c(O)c2ccccc2n(C)c1=O` the lipid storage change, negative = inhibition was inconclusive: 40%.
With `Cc1ccc(-c2noc(CSc3nnc(Cc4ccccc4)n3-c3ccc(Cl)cc3)n2)cc1` the lipid storage change, negative = inhibition was inconclusive: 345%.
In the case of `CC(=O)Nc1ccc(S(=O)(=O)NNC(=O)c2cccc([N+](=O)[O-])c2)cc1`, the Potency is reported as inconclusive: 32.6 µM [activator, single point].
In the case of `COc1ccc(C(=O)COC(=O)c2sc(C)nc2C)cc1OC`, the Potency is reported as inconclusive: 0.0046 µM [activator, full curve, poor fit].
With `Fc1ccccc1C1CCN(Cc2nc(COc3ccccc3)no2)C1` (stereo not given) the lipid storage change, negative = inhibition was inconclusive: 13.4%.
With `COC(=O)Cc1c(C)[nH]n(-c2cc(Cl)cc(Cl)c2)c1=O` the lipid storage change, negative = inhibition was inconclusive: 2%.
With `Clc1ccc(C2=CSC3=NCCN23)cc1Cl` the lipid storage change, negative = inhibition was inconclusive: 23.4%.
For `CCOC(=O)N1CCN(CC(=O)N2CCC(C(N)=O)CC2)CC1`, the lipid storage change, negative = inhibition was inconclusive: 42.5%.
For `COc1ccc(NC(=O)CSc2nnc(-c3ccc(C)cc3)n2N)cc1`, the lipid storage change, negative = inhibition was inconclusive: 18.3%.
With `COc1cc(/C=N\NC(=O)c2ccc(Cn3cc(Br)c([N+](=O)[O-])n3)o2)cc(OC)c1O` the Potency was inconclusive: 14.6 µM [falling, partial curve, poor fit].

From PubChem BioAssay AID2685 (National Center for Advancing Translational Sciences (NCATS), 2010)
% is set by controls: 0 for no effect and ±100 for the full control effect; potency is the fitted concentration of half-maximal effect.
